Experimental data taken from patent US5571685A (priority 1992, dated 1996).
The name of at least one read-out is uncertain.

Sequences of proteins named here, by UniProt entry; tags and fusion partners are left off.
UniProt Q51990, entry or part of it: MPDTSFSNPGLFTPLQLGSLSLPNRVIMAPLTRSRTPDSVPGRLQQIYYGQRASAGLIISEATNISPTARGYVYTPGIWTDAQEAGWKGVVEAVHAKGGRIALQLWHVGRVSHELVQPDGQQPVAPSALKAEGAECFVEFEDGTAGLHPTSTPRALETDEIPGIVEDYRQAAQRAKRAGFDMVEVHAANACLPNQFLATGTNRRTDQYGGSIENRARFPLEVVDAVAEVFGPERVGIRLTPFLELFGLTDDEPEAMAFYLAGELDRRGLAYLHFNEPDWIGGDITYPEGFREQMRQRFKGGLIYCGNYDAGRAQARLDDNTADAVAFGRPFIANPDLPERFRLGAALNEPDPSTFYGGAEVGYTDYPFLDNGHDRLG

Target: T1, deflavo-morphinone reductase (Pseudomonas putida, UniProt Q51990)
T1 construct: FMN removed by ammonium sulphate (apoenzyme); initiator Met absent
Assay: Reconstitution of deflavo-morphinone reductase by incubation with flavins
Type: biochemical, Pseudomonas putida M10
Details: 30 minutes at 4° C., free flavin removed by ultrafiltration
Description: Flavin was dissociated from morphinone reductase by boiling for 3 minutes and removal of denatured protein by ultrafiltration. […] Thin layer chromatography (TLC) of flavins was performed on silica plates using solvent systems 2 and 4 of Fazekas and Kokai (Met. Enzymol. (1971) 18B:385-398), viz. 12:3:5 n-butanol:acetic acid:water and 2% disodium hydrogen phosphate in water. Flayins on TLC plates were visualised by their yellow fluorescence when illuminated by ultraviolet light at 366 nm. Luciferase assay of flavins was performed using the commercially-availablepreparation of Vibrio harveyii luciferase of Sigma. The reaction mixture contained 0.1 mg/ml luciferase preparation, 0.1 mg/ml bovine serum albumin, 0.2 mM n-decanal, 0.5 mM NADH and 1.5mM dithiothreitol. Assays were carried out at 24° C. and light emission was measured using a BioOrbit 1250 Luminometer (Labsystems (UK) Ltd., Basingstoke, U.K.). Deflavomorphinone reductase was prepared by ammonium sulphate treatment, as described by Husain and Massey (1978) Met. Enzymol. 53:429-437.
The liberated flavin comigrated with flavin mononucleotide (FMN) and not with flavin adenine dinucleotide (FAD) or riboflavin in two thin layer chromatography systems. The liberated flavin gave a positive result in the luciferase assay which is highly specific for FMN (Chappelle and Picciolo, Met. Enzymol (1971) 18B:381-385). […]

With `Cc1cc2nc3c(=O)[nH]c(=O)nc-3n(C[C@H](O)[C@H](O)[C@H](O)COP(=O)(O)O)c2cc1C` [FMN, flavin mononucleotide] the “Activity in the standard assay regained after incubation with flavin” value was “approximately 80%”.
